Experimental data reported in PMC11253665.
These are yes or no findings as the source states them, for the method shown. Some results given as binding are weak or reduced against the parent protein; the word gives no strength.

Molecular target: T1, Bqt3 (S. pombe) (UniProt O74510)
T1 sequence: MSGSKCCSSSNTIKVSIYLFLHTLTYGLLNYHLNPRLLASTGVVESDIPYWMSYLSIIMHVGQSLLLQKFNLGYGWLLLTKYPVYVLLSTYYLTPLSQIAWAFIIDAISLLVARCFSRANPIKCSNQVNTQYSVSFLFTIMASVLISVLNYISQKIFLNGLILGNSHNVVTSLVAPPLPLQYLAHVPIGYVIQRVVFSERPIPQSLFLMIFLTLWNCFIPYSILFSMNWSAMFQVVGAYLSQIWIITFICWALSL
Assay: two-hybrid; Clontech … system; Bqt4 in pGADT7-AD and Bqt3 in pGBKT7-DB co-transfected into S. cerevisiae AH109; 1.0 x 10^6 cells spotted on SD -Leu/-Trp or -Ade/-His/-Leu/-Trp plates, 30 °C, 3 days

B1: Bqt4 ΔKSE mutant (Δ364–383 aa) (protein, UniProt O60158)
chain: MTENEKSRSLPAERNPLYKDDTLDHTPLIPKCRAQVIEFPDGPATFVRLKCTNPESKVPHFLMRMAKDSSISATSMFRSAFPKATQEEEDLEMRWIRDNLNPIEDKRVAGLWVPPADALALAKDYSMTPFINALLEASSTPSTYATPSRPTAQKSETSEGEPESSTSATTTSVARRTRQRLAEHLENSKKTILQHDNKEEDKEIHSEENETKDEIKSEKKEPEIKKQEGGSSTEKVGQPSSSDDKAKGSTSKDQPSEEEEKTSDIQDRKIKTPIKPSLLGKIRSSVNKGMTDVASQVNRGMTDVASQVNKGVNGVASQVNKGMNGVANQVNKGVTGVASQVRKPVGKLEKKFENLEKSIGDTLNEDYNAMVPVKRSRITKLESEVYYEKRKVRALGGIAIGLGVGAILPFLF
binding: binds

B2: wild-type Bqt4 (protein, UniProt O60158 1-432)
chain: MTENEKSRSLPAERNPLYKDDTLDHTPLIPKCRAQVIEFPDGPATFVRLKCTNPESKVPHFLMRMAKDSSISATSMFRSAFPKATQEEEDLEMRWIRDNLNPIEDKRVAGLWVPPADALALAKDYSMTPFINALLEASSTPSTYATPSRPTAQKSETSEGEPESSTSATTTSVARRTRQRLAEHLENSKKTILQHDNKEEDKEIHSEENETKDEIKSEKKEPEIKKQEGGSSTEKVGQPSSSDDKAKGSTSKDQPSEEEEKTSDIQDRKIKTPIKPSLLGKIRSSVNKGMTDVASQVNRGMTDVASQVNKGVNGVASQVNKGMNGVANQVNKGVTGVASQVRKPVGKLEKKFENLEKSIGDTLKSSIRSSPKSKKRSREDFEENEDYNAMVPVKRSRITKLESEVYYEKRKVRALGGIAIGLGVGAILPFLF
binding: binds
